The source of these data is article PMC3722562.

By UniProt entry, the sequences of proteins in these tests, tags left out. Where a name states a change or a piece, a line headed by the entry shows the natural chain unless it says otherwise.
UniProt Q04609: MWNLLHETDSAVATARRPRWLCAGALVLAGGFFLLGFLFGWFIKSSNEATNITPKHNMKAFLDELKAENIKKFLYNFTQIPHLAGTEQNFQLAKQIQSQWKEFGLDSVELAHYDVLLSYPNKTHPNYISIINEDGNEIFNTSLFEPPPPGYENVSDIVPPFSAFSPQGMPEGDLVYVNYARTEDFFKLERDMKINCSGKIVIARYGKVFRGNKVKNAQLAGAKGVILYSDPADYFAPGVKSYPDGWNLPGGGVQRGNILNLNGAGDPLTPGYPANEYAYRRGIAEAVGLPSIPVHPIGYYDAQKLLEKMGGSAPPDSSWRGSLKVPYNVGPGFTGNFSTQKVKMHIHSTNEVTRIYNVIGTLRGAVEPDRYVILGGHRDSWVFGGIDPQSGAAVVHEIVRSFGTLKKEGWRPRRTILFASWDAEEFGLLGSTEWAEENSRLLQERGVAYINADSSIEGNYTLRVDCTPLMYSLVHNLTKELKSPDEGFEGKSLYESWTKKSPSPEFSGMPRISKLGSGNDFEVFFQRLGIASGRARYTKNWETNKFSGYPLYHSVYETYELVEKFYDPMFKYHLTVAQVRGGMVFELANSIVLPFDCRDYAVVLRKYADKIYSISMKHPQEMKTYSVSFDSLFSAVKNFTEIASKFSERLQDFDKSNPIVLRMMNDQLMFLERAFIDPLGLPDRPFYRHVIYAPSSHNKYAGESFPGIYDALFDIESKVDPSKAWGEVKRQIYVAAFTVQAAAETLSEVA
UniProt P06494: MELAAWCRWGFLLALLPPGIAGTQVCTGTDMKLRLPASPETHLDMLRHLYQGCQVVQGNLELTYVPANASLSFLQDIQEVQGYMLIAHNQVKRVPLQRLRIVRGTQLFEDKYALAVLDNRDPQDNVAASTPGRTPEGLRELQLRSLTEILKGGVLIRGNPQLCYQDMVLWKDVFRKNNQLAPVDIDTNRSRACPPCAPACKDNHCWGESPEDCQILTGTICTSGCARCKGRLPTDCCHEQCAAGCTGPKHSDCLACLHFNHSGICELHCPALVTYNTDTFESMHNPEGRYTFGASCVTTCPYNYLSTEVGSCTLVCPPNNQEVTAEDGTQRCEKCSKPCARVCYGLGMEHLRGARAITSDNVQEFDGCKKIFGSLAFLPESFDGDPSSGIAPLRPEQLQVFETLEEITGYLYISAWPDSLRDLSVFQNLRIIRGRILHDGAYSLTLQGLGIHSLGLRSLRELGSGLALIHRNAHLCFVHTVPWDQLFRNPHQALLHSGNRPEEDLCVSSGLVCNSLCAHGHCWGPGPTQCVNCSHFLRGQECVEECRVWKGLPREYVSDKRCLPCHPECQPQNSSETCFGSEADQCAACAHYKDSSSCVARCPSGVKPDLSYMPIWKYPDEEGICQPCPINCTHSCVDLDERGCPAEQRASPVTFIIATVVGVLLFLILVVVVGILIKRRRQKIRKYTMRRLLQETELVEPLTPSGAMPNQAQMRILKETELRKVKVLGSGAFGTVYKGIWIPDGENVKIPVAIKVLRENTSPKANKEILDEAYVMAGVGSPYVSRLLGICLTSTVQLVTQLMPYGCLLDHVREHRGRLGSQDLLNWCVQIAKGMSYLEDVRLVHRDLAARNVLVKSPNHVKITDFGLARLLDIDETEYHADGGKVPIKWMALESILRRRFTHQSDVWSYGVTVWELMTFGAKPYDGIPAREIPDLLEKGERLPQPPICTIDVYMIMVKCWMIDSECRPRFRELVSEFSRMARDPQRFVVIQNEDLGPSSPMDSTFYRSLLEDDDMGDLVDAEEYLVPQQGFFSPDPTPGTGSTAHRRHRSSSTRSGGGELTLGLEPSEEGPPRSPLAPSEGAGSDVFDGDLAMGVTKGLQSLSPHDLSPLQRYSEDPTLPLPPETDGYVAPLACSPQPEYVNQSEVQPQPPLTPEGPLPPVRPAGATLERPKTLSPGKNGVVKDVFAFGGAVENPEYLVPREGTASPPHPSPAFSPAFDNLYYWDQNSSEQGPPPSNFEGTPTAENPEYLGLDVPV

Data set [1] concerns the target PSMA on PC3(PSMA+) cells (UniProt Q04609). Nature of the data set: flow cytometry. The note with it: 1 uM FAM-A9g, 4 C and 37 C; 2'-fluoro pyrimidines; Cell assays mostly in DPBS at 37 C (4 C for surface binding), washes DPBS, 0.5 M NaCl +/- 0.2 N acetic acid or trypsin; Qdot flow after 10% FBS/DPBS block; protein on the cell surface. (In general: A flow cytometer gives signals particle by particle.)

For data set [2] the target is unchanged. In words: plate-reader fluorescence on fixed cells. The conditions noted are these: 200 nM FAM-A9g, signal lost with 0.5 M NaCl wash; 2'-fluoro pyrimidines; Cell assays mostly in DPBS at 37 C (4 C for surface binding), washes DPBS, 0.5 M NaCl +/- 0.2 N acetic acid or trypsin; Qdot flow after 10% FBS/DPBS block; protein on the cell surface.
The target is the same in data set [3]. Nature of the data set: cell fluorescence microscopy. The conditions noted are these: 37 C, 2'-fluoro pyrimidines, Cell assays mostly in DPBS at 37 C (4 C for surface binding), washes DPBS, 0.5 M NaCl +/- 0.2 N acetic acid or trypsin, Qdot flow after 10% FBS/DPBS block, protein on the cell surface.
Data set [4] addresses HER2 (rat) (rat) (UniProt P06494). Nature of the data set: plate-reader fluorescence on fixed cells. The conditions noted are these: 1 uM FAM-E1, residual after 0.5 M NaCl wash; 2'-fluoro pyrimidines; Cell assays mostly in DPBS at 37 C (4 C for surface binding), washes DPBS, 0.5 M NaCl +/- 0.2 N acetic acid or trypsin; Qdot flow after 10% FBS/DPBS block; protein on the cell surface; label: FAM.

The test system of data set [5] is TrkB on HEK293 cells. Nature of the data set: antibody amplification cell microscopy. The note with it: 100 nM, 37 C; 2'-fluoro pyrimidines; Cell assays mostly in DPBS at 37 C (4 C for surface binding), washes DPBS, 0.5 M NaCl +/- 0.2 N acetic acid or trypsin; Qdot flow after 10% FBS/DPBS block; protein on the cell surface; label: 3'-FAM.

The exact form of at least one protein or probe is not confirmed. Where cells or extracts were used, other partners may take part. For some of these results: A negative result means that nothing was seen under these conditions.

On to “GGGACCGAAAAAGACCUGACUUCUAUACUAAGUCUACGUUCCC [A9g]”, for which the binding result was “binds” in data set [1]; “binds” in data set [2]; “binds” in data set [3] (500 nM FAM-A9g, no signal in PSMA- cells).
Consider “GGGAGGACGAUGCGGGACUAGCGAUCUGUUACGCACAGACGACUCGCCCGA [Scr]”, for which the binding result in data set [3] (500 nM, label: 5'-FAM) is on record as “no binding”.
For the sequence “GGGAGGACGAUGCGGUCCUGUCGUCUGUUCGUCCCCAGACGACUCGCCCGA [E1]”, the binding result in data set [4] is on record as “binds”.
For the sequence “GGGAGGACGAUGCGGUCGUAUUAUCCGCUGCACGCCAGACGACUCGCCCGA [C4-3]”, the binding result in data set [5] was “binds”.
On the same count and under the same terms, the entry for “GGGAGGACGAUGCGGUUUGGGGUUUUCCCGUGCCCCAGACGACUCGCCCGA [Scr2 (control aptamer for TrkB)]” is “no binding”.
